# Data published in publication PMC10460429.
# Chains of the proteins cited; added tags and fusions are not shown. Lines headed by an entry give the natural chain unless they say otherwise; changes in a name come on top.
# UniProt O35613: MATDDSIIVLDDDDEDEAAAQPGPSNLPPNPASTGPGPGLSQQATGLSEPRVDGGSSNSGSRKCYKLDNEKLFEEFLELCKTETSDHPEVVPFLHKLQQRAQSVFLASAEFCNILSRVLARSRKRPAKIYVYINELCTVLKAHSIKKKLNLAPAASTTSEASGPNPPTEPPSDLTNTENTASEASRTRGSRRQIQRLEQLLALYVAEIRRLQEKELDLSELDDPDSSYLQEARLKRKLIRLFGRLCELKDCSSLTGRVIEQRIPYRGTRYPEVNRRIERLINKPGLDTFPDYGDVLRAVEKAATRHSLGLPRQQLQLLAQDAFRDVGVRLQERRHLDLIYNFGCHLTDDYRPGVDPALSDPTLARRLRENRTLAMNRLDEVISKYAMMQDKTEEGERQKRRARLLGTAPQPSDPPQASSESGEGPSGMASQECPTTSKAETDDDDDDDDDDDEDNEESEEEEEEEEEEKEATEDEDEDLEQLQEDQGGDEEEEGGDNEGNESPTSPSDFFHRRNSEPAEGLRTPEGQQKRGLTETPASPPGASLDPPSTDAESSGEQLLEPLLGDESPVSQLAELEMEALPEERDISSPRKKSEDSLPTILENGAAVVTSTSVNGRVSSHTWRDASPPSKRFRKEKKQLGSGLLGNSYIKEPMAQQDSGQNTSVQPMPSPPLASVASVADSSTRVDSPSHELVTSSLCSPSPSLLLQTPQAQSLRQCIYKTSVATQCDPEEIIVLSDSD
# UniProt P46100: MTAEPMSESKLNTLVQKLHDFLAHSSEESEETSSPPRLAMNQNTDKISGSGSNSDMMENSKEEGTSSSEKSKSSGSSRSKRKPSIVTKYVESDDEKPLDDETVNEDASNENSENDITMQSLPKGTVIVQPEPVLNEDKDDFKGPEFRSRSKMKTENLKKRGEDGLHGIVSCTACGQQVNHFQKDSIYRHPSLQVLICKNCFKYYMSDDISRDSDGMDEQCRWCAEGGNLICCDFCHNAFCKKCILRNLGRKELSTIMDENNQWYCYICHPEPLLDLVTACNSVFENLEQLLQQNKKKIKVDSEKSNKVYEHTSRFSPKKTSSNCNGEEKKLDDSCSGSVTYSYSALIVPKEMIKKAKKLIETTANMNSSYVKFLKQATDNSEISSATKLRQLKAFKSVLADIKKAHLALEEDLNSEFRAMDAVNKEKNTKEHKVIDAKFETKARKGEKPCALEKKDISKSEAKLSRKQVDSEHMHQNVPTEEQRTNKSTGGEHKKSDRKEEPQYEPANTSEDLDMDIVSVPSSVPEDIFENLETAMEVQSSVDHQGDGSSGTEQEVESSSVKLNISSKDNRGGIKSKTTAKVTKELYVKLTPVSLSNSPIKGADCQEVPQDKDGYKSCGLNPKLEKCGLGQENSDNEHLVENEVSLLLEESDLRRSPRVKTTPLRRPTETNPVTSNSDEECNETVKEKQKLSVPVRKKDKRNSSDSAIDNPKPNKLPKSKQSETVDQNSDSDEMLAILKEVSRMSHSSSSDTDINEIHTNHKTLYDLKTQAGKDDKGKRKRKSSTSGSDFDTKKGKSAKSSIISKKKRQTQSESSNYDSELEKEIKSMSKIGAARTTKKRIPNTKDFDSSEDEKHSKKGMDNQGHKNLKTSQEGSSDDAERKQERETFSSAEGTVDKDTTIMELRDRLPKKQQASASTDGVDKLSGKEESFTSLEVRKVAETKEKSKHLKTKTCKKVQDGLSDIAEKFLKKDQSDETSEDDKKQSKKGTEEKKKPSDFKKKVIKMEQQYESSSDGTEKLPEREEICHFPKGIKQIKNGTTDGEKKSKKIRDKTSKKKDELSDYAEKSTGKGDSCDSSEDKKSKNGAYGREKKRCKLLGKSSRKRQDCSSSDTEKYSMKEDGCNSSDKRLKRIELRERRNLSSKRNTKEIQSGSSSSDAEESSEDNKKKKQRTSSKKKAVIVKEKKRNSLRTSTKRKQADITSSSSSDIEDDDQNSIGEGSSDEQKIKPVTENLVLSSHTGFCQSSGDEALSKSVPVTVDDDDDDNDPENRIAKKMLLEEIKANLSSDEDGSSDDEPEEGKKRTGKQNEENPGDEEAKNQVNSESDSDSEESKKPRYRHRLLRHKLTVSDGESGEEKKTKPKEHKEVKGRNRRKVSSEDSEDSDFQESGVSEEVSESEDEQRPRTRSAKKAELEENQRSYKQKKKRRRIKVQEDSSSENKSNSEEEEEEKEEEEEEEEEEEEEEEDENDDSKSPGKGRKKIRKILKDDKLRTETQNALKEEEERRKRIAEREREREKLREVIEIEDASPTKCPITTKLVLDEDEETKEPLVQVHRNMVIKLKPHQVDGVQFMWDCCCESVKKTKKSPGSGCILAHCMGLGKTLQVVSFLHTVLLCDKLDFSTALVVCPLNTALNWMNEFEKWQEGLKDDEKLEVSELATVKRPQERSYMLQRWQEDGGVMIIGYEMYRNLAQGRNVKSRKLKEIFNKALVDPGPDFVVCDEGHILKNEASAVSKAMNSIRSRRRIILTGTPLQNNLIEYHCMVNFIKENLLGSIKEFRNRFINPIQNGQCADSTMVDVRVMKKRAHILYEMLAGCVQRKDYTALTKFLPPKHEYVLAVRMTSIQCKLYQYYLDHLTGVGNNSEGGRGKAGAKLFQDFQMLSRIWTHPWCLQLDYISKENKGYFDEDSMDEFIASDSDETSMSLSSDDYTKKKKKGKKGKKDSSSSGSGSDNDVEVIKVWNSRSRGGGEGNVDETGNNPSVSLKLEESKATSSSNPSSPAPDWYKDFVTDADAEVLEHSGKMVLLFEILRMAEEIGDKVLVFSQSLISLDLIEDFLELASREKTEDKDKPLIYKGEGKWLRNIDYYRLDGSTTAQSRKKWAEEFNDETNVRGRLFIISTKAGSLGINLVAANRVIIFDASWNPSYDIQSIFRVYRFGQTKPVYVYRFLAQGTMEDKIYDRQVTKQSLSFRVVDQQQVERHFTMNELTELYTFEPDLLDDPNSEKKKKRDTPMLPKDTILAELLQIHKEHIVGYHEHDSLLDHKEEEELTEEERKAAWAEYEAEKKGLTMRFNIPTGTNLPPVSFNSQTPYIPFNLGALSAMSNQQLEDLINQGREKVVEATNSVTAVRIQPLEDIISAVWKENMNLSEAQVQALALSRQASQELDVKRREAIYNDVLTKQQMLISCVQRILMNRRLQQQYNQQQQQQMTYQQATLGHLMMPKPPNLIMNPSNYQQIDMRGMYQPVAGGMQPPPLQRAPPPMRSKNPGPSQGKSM
# These are yes or no findings as the source states them, for the method shown. In cells and extracts the contact can be indirect. Some binding calls cover weakened binding; strength is not graded here.
# Columns and labels:
# [1] = molecular target: Myc-tagged Daxx (wild-type) (mouse) (UniProt O35613); test: co-IP; Myc-tagged Daxx (wild-type or mutants) overexpressed with either ATRX or H3.3 in 293 T cells; lysis in 50 mM Tris-HCl pH 7.4, 150 mM NaCl, 1% NP-40, 2 mM EDTA; 1 mg lysate precipitated with c-Myc antibody overnight and Protein A agarose for 4 h; blots for Atrx, H3.3, Daxx
# [2] = molecular target: Myc-tagged Daxx S226A (mouse) (UniProt O35613); test: as above
substance,measurement,setting,value
ATRX (from UniProt P46100 1-2492),binding,[1],binds
same,binding,[2],binds
